Results from PMC11976965.
Positions count from the first letter of the chain named. Results are given in words; binding and its absence hold for the method and conditions named. In cells and extracts the contact can be indirect. Some results given as binding are weak or reduced against the parent protein; the word gives no strength. Tags and fused reporters may be left off the sequences shown.

Chains of the proteins cited; added tags and fusions are not shown. Residues count along the entry.
UniProt O95831, residues 102-613: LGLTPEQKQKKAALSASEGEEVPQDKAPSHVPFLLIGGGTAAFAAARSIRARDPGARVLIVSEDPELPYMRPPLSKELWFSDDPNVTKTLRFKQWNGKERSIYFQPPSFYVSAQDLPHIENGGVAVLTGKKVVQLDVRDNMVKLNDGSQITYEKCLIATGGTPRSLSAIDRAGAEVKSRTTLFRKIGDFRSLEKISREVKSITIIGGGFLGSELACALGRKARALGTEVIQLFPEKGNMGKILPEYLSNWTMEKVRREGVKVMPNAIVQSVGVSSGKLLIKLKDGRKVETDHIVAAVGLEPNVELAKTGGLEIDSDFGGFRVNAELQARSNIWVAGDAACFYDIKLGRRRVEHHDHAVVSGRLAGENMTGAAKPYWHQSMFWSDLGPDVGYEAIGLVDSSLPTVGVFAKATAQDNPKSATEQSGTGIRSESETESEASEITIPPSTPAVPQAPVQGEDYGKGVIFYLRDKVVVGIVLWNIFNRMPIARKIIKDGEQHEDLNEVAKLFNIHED

Legend:
Assay in all cases: co-IP; FLAG-tag affinity purification with MIA40_(FLAG) as bait on anti-FLAG M2 affinity gel, 2 h at 4 °C; cells solubilised in 50 mM Tris-HCl pH 7.4, 150 mM NaCl, 10% glycerol, 1 mM EDTA, 2 mM PMSF, 50 mM IAA, 1% digitonin; eluates by SDS-PAGE and Western blot; control HEK293T versus NDUFA13-KO cells; with or without 100 µM NADH; cells treated with 10 or 100 nM rotenone for 12 h; with or without Nde2-HA expression
[1] = biological target: T1, MIA40-C55S_(FLAG), inducible expression in Flp-In T-REx 293 cells (human) (UniProt Q8N4Q1)
T1 sequence: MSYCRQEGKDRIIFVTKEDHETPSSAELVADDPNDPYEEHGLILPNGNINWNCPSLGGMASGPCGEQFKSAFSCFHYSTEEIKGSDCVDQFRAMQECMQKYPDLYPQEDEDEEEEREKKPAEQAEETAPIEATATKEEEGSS

[2] = biological target: T2, MIA40WT_(FLAG), wild-type MIA40 with FLAG tag, inducible expression in Flp-In T-REx 293 cells (human) (UniProt Q8N4Q1)
T2 sequence: T1 sequence with S55C

[3] = biological target: T3, MIA40_(FLAG) (Mitochondrial intermembrane space import and assembly protein 40, FLAG-tagged), transfected in HEK293T cells (human) (UniProt Q8N4Q1)
T3 sequence: T1 sequence with S55C

Measured: binding

apoptosis-inducing factor 1 (AIFM1) (from UniProt O95831 102-613)
binds: all assays above
